Data as given in PubChem BioAssay AID743121 (NCATS, 2013)

Purpose: 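Partners whose loss is lethal together with topoisomerase I blockade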 (primary screen)
Cell system: MDA-MB-231 cells, a human breast cancer line
Reagents: single siRNA against human genes, 20 nM siRNA (0.8 pmol per well)
Time to read-out: 120 h (drug added 48 h after transfection, read 72 h later)
Challenge: camptothecin 20 nM (about EC30) for 72 h; vehicle 0.1% DMSO in parallel plates
Read-out: 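CellTiter-Glo ATP signal, scaled to control siRNA as percent viability; sensitisation given as log2 of untreated divided by camptothecin-treated viability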
Direction: log2 vehicle/camptothecin viability: higher = stronger sensitisation to camptothecin
Rule for the call: 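Each gene scored by redundant siRNA activity (RSA) over its individual siRNA ratios; a gene is called active at p < 0.001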
This is a random part of about 26,000 deposited reagents. 167 of them (0.63%) count as active. 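Calls are per gene from RSA p-values that are not deposited; an individual active-marked siRNA can sensitise only weakly.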 Entries without a mark were called inactive. Further read-outs or replicates are left out here.

no.	gene symbol	PubChem SID	log2 vehicle/camptothecin viability
1	RNF125	SID164481657	0.226
2	RNF125	SID164481659	-0.209
3	RNF125	SID164481661	0.472
4	KCNG2	SID164459460	-0.445
5	KCNG2	SID164459461	-0.53
6	KCNG2	SID164459462	-0.444
7	KCNG2	SID164459464	0.00927
8	GRINA	SID164367724	-0.0943
9	GRINA	SID164367725	-0.172
10	GRINA	SID164367726	-0.593
11	GRINA	SID164367727	-0.529
12	ACSL6	SID164447142	0.124
13	ACSL6	SID164447145	-0.0128
14	ACSL6	SID164447146	-0.163
15	ACSL6	SID164447149	0.0816
16	XYLB	SID164407591	-0.359
17	XYLB	SID164407594	0.712
18	XYLB	SID164407596	-0.167
19	XYLB	SID164407597	-0.302
20	IL31RA	SID164570077	0.034
21	IL31RA	SID164570079	-0.187
22	IL31RA	SID164570080	-0.605
23	IL31RA	SID164570083	-0.018
24	EDARADD	SID164568580	0.278
25	EDARADD	SID164568582	-0.147
26	EDARADD	SID164568585	0.00118
27	ASB9	SID164571501	-0.323
28	ASB9	SID164571502	-0.315
29	ASB9	SID164571504	-0.251
30	ASB9	SID164571505	-0.501
31	FBXO8	SID164459576	0.173
32	FBXO8	SID164459577	-0.584
33	FBXO8	SID164459578	0.388
34	FBXO8	SID164459580	-0.276

Looked up above.
Under “log2 vehicle/camptothecin viability”, GRINA [SID164367726] shows -0.593
RNF125 [SID164481657], log2 vehicle/camptothecin viability = 0.226
FBXO8 [SID164459580], log2 vehicle/camptothecin viability → -0.276
ASB9 [SID164571502], log2 vehicle/camptothecin viability = -0.315
Result for KCNG2 [SID164459460] in “log2 vehicle/camptothecin viability”: -0.445
For “log2 vehicle/camptothecin viability”, XYLB [SID164407591] has -0.359

The results go on:
no.	gene symbol	PubChem SID	log2 vehicle/camptothecin viability
35	OVCH2	SID164658654	0.29
36	OVCH2	SID164658656	-0.441
37	OVCH2	SID164658657	-0.106
38	OVCH2	SID164658658	0.29
39	PHF21A	SID164473321	-0.445
40	PHF21A	SID164473323	-0.199
41	PHF21A	SID164473325	-0.0878
42	PHF21A	SID164473326	-0.511
43	GAPDHS	SID164459775	0.0687
44	GAPDHS	SID164459776	0.126
45	GAPDHS	SID164459777	0.765
46	GAPDHS	SID164459779	-0.00757
47	CAPN9	SID164413232	-0.0366
48	CAPN9	SID164413234	-0.27
49	CAPN9	SID164413236	-0.441
50	CAPN9	SID164413237	0.837
51	HABP2	SID164368472	-0.187
52	HABP2	SID164368473	0.511
53	HABP2	SID164368474	-0.242
54	HABP2	SID164368476	-0.0901
55	SORL1	SID164389266	0.0133
56	SORL1	SID164389268	0.354
57	SORL1	SID164389272	-0.338
58	GPSM2	SID164468386	0.0925
59	GPSM2	SID164468390	0.203
60	GPSM2	SID164468391	-0.285
61	IL21	SID164498106	-0.234
62	IL21	SID164498108	0.474
63	IL21	SID164498109	-0.453
64	TNFAIP1	SID164392184	-0.667
65	TNFAIP1	SID164392186	-0.083
66	TNFAIP1	SID164392187	-0.339
67	TNFAIP1	SID164392188	-0.177
68	CRB1	SID164447917	-0.367
69	CRB1	SID164447918	-0.258
70	CRB1	SID164447919	-0.219
71	CRB1	SID164447920	0.112
72	PRSS2	SID164383049	-0.2
73	PRSS2	SID164383052	0.504
74	SENP8	SID164566732	-0.0104
75	SENP8	SID164566734	-0.405
76	SENP8	SID164566735	-0.186
77	SENP8	SID164566736	0.0756
78	SAP18	SID164410050	-0.421
79	SAP18	SID164410052	-0.146
80	SAP18	SID164410054	0.18
81	POLI	SID164416287	0.103
82	POLI	SID164416289	-0.446
83	POLI	SID164416291	-0.16
84	ITGAE	SID164371965	0.191
85	ITGAE	SID164371966	-0.116
86	ITGAE	SID164371968	0.107
87	ITGAE	SID164371969	-0.236
